Like-named read-outs stand apart in the source and are kept apart here. Results are given in words; binding and its absence hold for the method and conditions named. Binding seen in cells or lysates may run through a third protein. Some binding calls cover weakened binding; strength is not graded here. One block for each molecule: values may come before it.
What was measured:
[1] = molecular target: 3XFLAG-tagged mLLP (mouse LLP homolog) (mouse) (UniProt Q9D945); test: co-IP; nuclear extracts of HEK293T cells transfected with 3XFLAG-tagged mLLP or control plasmid; dialysed into IP buffer (25 mM Tris pH 7.4, 150 mM NaCl, 0.1% Triton X-100); anti-FLAG agarose beads overnight at 4 °C; immunoblot
[2] = molecular target: 3XFLAG-tagged mLLP (mouse LLP homolog) (mouse) (UniProt Q9D945); test: as above; remark: listed apart in the source

By UniProt entry, the sequences of proteins in these tests, tags left out.
UniProt Q9D945: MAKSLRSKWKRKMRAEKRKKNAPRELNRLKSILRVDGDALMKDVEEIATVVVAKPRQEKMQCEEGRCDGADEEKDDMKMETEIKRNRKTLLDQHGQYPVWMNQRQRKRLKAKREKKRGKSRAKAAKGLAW
UniProt P20226: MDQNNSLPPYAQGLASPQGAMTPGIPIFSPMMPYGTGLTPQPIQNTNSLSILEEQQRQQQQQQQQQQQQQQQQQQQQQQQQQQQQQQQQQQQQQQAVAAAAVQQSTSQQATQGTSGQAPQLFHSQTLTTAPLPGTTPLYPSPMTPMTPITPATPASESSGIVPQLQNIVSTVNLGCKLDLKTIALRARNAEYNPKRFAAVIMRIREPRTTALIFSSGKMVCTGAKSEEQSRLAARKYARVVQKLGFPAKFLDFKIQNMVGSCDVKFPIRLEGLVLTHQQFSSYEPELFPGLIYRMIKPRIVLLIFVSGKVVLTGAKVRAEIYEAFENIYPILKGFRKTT

binding [1]: binds
Molecule: TATA-binding protein (TBP) (from UniProt P20226 1-339)

binding [2]: binds
B1: CCCTC-binding factor (CTCF) (protein, UniProt P49711 1-727)
chain: MEGDAVEAIVEESETFIKGKERKTYQRRREGGQEEDACHLPQNQTDGGEVVQDVNSSVQMVMMEQLDPTLLQMKTEVMEGTVAPEAEAAVDDTQIITLQVVNMEEQPINIGELQLVQVPVPVTVPVATTSVEELQGAYENEVSKEGLAESEPMICHTLPLPEGFQVVKVGANGEVETLEQGELPPQEDPSWQKDPDYQPPAKKTKKTKKSKLRYTEEGKDVDVSVYDFEEEQQEGLLSEVNAEKVVGNMKPPKPTKIKKKGVKKTFQCELCSYTCPRRSNLDRHMKSHTDERPHKCHLCGRAFRTVTLLRNHLNTHTGTRPHKCPDCDMAFVTSGELVRHRRYKHTHEKPFKCSMCDYASVEVSKLKRHIRSHTGERPFQCSLCSYASRDTYKLKRHMRTHSGEKPYECYICHARFTQSGTMKMHILQKHTENVAKFHCPHCDTVIARKSDLGVHLRKQHSYIEQGKKCRYCDAVFHERYALIQHQKSHKNEKRFKCDQCDYACRQERHMIMHKRTHTGEKPYACSHCDKTFRQKQLLDMHFKRYHDPNFVPAAFVCSKCGKTFTRRNTMARHADNCAGPDGVEGENGGETKKSKRGRKRKMRSKKEDSSDSENAEPDLDDNEDEEEPAVEIEPEPEPQPVTPAPPPAKKRRGRPPGRTNQPKQNQPTAIIQVEDQNTGAIENIIVEVKKEPDAEPAEGEEEEAQPAATDAPNGDLTPEMILSMMDR

— publication PMC4790632
